Laboratory results reported in PubChem BioAssay AID662 (National Center for Advancing Translational Sciences (NCATS), 2007).
The other results are listed elsewhere or left out. Further columns of the screen follow, without active or inactive calls. Most of these compounds were active or inconclusive in the main read-out, so they are no random draw. The note in brackets gives the kind of curve behind each potency; many fits are weak.

assay: Cell signaling CRE-BLA (Fsk stim); details: CHO CRE-bla reporter (cAMP response element driving beta-lactamase), forskolin EC10, beta-lactamase ratio; measured here: 460 nm blue channel
Outline: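 CRE-bla CHO reporter cells treated with compound titration plus EC10 NKH 477 (water-soluble forskolin), incubated 3 h at 37 °C; CCF4 loading 2 h at room temperature, 460/530 nm emission ratio read, AC50 values derived for positive or negative modulators.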

Compound | AC50
COc1cccc(-c2nc(C(N)=O)c3[nH]c(=O)n(-c4cccc(Cl)c4)c3n2)c1OC | 10 µM [rising, partial curve]
COc1ccc(N(C(=O)c2ccco2)S(=O)(=O)c2cccs2)cc1 | 12.6 µM [rising, partial curve]
CC(C)(C)/C(O)=C(/C#N)c1nc2ccccc2[nH]1 | 10 µM [rising, single point]
CS(=O)(=O)NCC(c1cccnc1)N1CCN(c2ccc(F)cc2)CC1 (centres undefined) | 31.6 µM [falling, single point]
CN(C)c1nc(N)nc(CSc2nnnn2-c2cccc3ccccc23)n1 | 7.94 µM [rising, partial curve]
CC1CC(C)CN(CCCNC(=O)CNC(=O)Cn2ccc3ccccc3c2=O)C1 (centres undefined) | 0.0794 µM [falling, full curve]
COc1c2occc2c(OC)c2c(=O)cc(C)oc12 | 7.94 µM [rising, partial curve]
Cn1c(C(=O)NCCCN2CCOCC2)cc2c(=O)n(C)c3ccccc3c21 | 10 µM [rising, partial curve]
CNc1ncnc2ccc(-c3ccccc3OC)cc12 | 10 µM [rising, partial curve]
CC(=O)c1c(C)nn(C(=O)c2cccs2)c1C | 7.94 µM [falling, partial curve]
CCn1c(CCNC(=O)c2ccc(OC)c(OC)c2)nc2ccccc21 | 12.6 µM [rising, partial curve]
COc1ccc2c(CCNC(=O)c3ccco3)c[nH]c2c1 | 0.631 µM [falling, partial curve]
COc1cc(C(=O)N2CCN(c3cccc(C)c3C)CC2)cc(OC)c1OC | 10 µM [rising, partial curve]
COc1ccc(S(=O)(=O)CCC(=O)N2CC(=O)N(CCc3ccccc3)C(=O)C2)cc1 | 0.00631 µM [falling, full curve]
COc1cccc(Cn2c(=O)cnc3cnc(OCc4ccccc4)nc32)c1 | 12.6 µM [rising, partial curve]
CCN(CC)CCNCc1ccc(-c2ccc(Cl)cc2)o1 | 12.6 µM [rising, partial curve]
Cn1nc(-c2ccc(C(=O)NCC3CCCO3)cc2)c2ccccc2c1=O (centres undefined) | 12.6 µM [rising, partial curve]
Cc1ccccc1CN1C2=NCCN2C(=O)C2=C1CCN(Cc1ccccc1)C2 | 5.01 µM [rising, single point]
O=C(CCN1CCOCC1)Nc1cccc(Br)c1 | 10 µM [falling, partial curve]

2 records drawn at random from those above:
Compound | AC50
COc1ccc(N(C(=O)c2ccco2)S(=O)(=O)c2cccs2)cc1 | 12.6 µM [rising, partial curve]
COc1ccc(S(=O)(=O)CCC(=O)N2CC(=O)N(CCc3ccccc3)C(=O)C2)cc1 | 0.00631 µM [falling, full curve]
